These are yes or no findings as the source states them, for the method shown. Some results given as binding are weak or reduced against the parent protein; the word gives no strength.
T1: human TL1A (Fitzgerald, Prod. #30R-AT070) (human) (UniProt O95150)
T1 sequence (biotinylated with EZ-Link Sulfo-NHS-LC-Biotin where used as soluble antigen, looked up): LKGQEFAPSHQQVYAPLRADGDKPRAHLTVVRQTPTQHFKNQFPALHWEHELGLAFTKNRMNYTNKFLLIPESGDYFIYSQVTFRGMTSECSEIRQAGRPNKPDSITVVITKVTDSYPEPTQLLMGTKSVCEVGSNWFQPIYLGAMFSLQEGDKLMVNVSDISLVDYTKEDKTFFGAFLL


biological target: T1, human TL1A (Fitzgerald, Prod. #30R-AT070) (human); test: ELISA

| binding | Binder |
| --- | --- |
| binds | H3-7 (V102Q) Fab (Fab, V domains shown) VH: QVQLVQSGAEVKKPGASVKVSCKASGFDIQDTYMHWVRQAPGQGLEWMGRIDPASGHTKYDPKFQVRVTMTRDTSTSTVYMELSSLRSEDTAVYYCARSGGLPDQWGQGTTVTVSS VL: EIVLTQSPGTLSLSPGERATLSCRASSSVSYMYWYQQKPGQAPRLLIYATSNLASGIPDRFSGSGSGTDFTLTISRLEPEDFAVYYCQQWSGNPRTFGGGTKLEIK |
| binds | L3-4 (S92Q) Fab (Fab, V domains shown) VH: QVQLVQSGAEVKKPGASVKVSCKASGFDIQDTYMHWVRQAPGQGLEWMGRIDPASGHTKYDPKFQVRVTMTRDTSTSTVYMELSSLRSEDTAVYYCARSGGLPDVWGQGTTVTVSS VL: EIVLTQSPGTLSLSPGERATLSCRASSSVSYMYWYQQKPGQAPRLLIYATSNLASGIPDRFSGSGSGTDFTLTISRLEPEDFAVYYCQQWQGNPRTFGGGTKLEIK |
| binds | H3-7 (V102W) Fab (Fab, V domains shown) VH: QVQLVQSGAEVKKPGASVKVSCKASGFDIQDTYMHWVRQAPGQGLEWMGRIDPASGHTKYDPKFQVRVTMTRDTSTSTVYMELSSLRSEDTAVYYCARSGGLPDWWGQGTTVTVSS VL: EIVLTQSPGTLSLSPGERATLSCRASSSVSYMYWYQQKPGQAPRLLIYATSNLASGIPDRFSGSGSGTDFTLTISRLEPEDFAVYYCQQWSGNPRTFGGGTKLEIK |

Continued, binder first:

| Binder | binding |
| --- | --- |
| L3-4 (S92E) Fab (Fab, V domains shown) VH: QVQLVQSGAEVKKPGASVKVSCKASGFDIQDTYMHWVRQAPGQGLEWMGRIDPASGHTKYDPKFQVRVTMTRDTSTSTVYMELSSLRSEDTAVYYCARSGGLPDVWGQGTTVTVSS VL: EIVLTQSPGTLSLSPGERATLSCRASSSVSYMYWYQQKPGQAPRLLIYATSNLASGIPDRFSGSGSGTDFTLTISRLEPEDFAVYYCQQWEGNPRTFGGGTKLEIK | binds |
| L3-4 (S92H) Fab (Fab, V domains shown) VH: QVQLVQSGAEVKKPGASVKVSCKASGFDIQDTYMHWVRQAPGQGLEWMGRIDPASGHTKYDPKFQVRVTMTRDTSTSTVYMELSSLRSEDTAVYYCARSGGLPDVWGQGTTVTVSS VL: EIVLTQSPGTLSLSPGERATLSCRASSSVSYMYWYQQKPGQAPRLLIYATSNLASGIPDRFSGSGSGTDFTLTISRLEPEDFAVYYCQQWHGNPRTFGGGTKLEIK | binds |
| L3-4 (S92D) Fab (Fab, V domains shown) VH: QVQLVQSGAEVKKPGASVKVSCKASGFDIQDTYMHWVRQAPGQGLEWMGRIDPASGHTKYDPKFQVRVTMTRDTSTSTVYMELSSLRSEDTAVYYCARSGGLPDVWGQGTTVTVSS VL: EIVLTQSPGTLSLSPGERATLSCRASSSVSYMYWYQQKPGQAPRLLIYATSNLASGIPDRFSGSGSGTDFTLTISRLEPEDFAVYYCQQWDGNPRTFGGGTKLEIK | binds |
| L3-4 (S92N) Fab (Fab, V domains shown) VH: QVQLVQSGAEVKKPGASVKVSCKASGFDIQDTYMHWVRQAPGQGLEWMGRIDPASGHTKYDPKFQVRVTMTRDTSTSTVYMELSSLRSEDTAVYYCARSGGLPDVWGQGTTVTVSS VL: EIVLTQSPGTLSLSPGERATLSCRASSSVSYMYWYQQKPGQAPRLLIYATSNLASGIPDRFSGSGSGTDFTLTISRLEPEDFAVYYCQQWNGNPRTFGGGTKLEIK | binds |

biological target: T1, human TL1A (Fitzgerald, Prod. #30R-AT070) (human); test: ELISA on antigen coated plates and ELISA capture of soluble biotinylated antigen

| binding | Binder |
| --- | --- |
| binds | Clone 34 IgG2 (antibody) heavy: QVQLVQSGAEVKKPGASVKVSCKASGFDIQDTYMHWVRQAPGQGLEWMGRIEPASGHIKYDPKFQGRVTMTRDTSTSTVYMELSSLRSEDTAVYYCARSGGLPDWWGQGTTVTVSSASTKGPSVFPLAPCSRSTSESTAALGCLVKDYFPEPVTVSWNSGALTSGVHTFPAVLQSSGLYSLSSVVTVPSSNFGTQTYTCNVDHKPSNTKVDKTVERKCCVECPPCPAPPVAGPSVFLFPPKPKDTLMISRTPEVTCVVVDVSHEDPEVQFNWYVDGVEVHNAKTKPREEQFNSTFRVVSVLTVVHQDWLNGKEYKCKVSNKGLPAPIEKTISKTKGQPREPQVYTLPPSREEMTKNQVSLTCLVKGFYPSDIAVEWESNGQPENNYKTTPPMLDSDGSFFLYSKLTVDKSRWQQGNVFSCSVMHEALHNHYTQKSLSLSPGK light: EIVLTQSPGTLSLSPGERATLSCRASSSVSYMYWYQQKPGQAPRLLIYATSNLASGIPDRFSGSGSGTDFTLTISRLEPEDFAVYYCQQWEGNPRTFGGGTKLEIKRTVAAPSVFIFPPSDEQLKSGTASVVCLLNNFYPREAKVQWKVDNALQSGNSQESVTEQDSKDSTYSLSSTLTLSKADYEKHKVYACEVTHQGLSSPVTKSFNRGEC |
| binds | Clone 14 IgG2 (antibody) heavy: QVQLVQSGAEVKKPGASVKVSCKASGFDIQDTYMHWVRQAPGQGLEWMGRIDPASGHIKYDPKFQKRVTMTRDTSTSTVYMELSSLRSEDTAVYYCARSGGLPDMWGQGTTVTVSSASTKGPSVFPLAPCSRSTSESTAALGCLVKDYFPEPVTVSWNSGALTSGVHTFPAVLQSSGLYSLSSVVTVPSSNFGTQTYTCNVDHKPSNTKVDKTVERKCCVECPPCPAPPVAGPSVFLFPPKPKDTLMISRTPEVTCVVVDVSHEDPEVQFNWYVDGVEVHNAKTKPREEQFNSTFRVVSVLTVVHQDWLNGKEYKCKVSNKGLPAPIEKTISKTKGQPREPQVYTLPPSREEMTKNQVSLTCLVKGFYPSDIAVEWESNGQPENNYKTTPPMLDSDGSFFLYSKLTVDKSRWQQGNVFSCSVMHEALHNHYTQKSLSLSPGK light: EIVLTQSPGTLSLSPGERATLSCRASSSVSYMYWYQQKPGQAPRLLIYATSNLASGIPDRFSGSGSGTDFTLTISRLEPEDFAVYYCQQWQGNPRTFGGGTKLEIKRTVAAPSVFIFPPSDEQLKSGTASVVCLLNNFYPREAKVQWKVDNALQSGNSQESVTEQDSKDSTYSLSSTLTLSKADYEKHKVYACEVTHQGLSSPVTKSFNRGEC |
| binds | Clone 47 IgG2 (antibody) heavy: QVQLVQSGAEVKKPGASVKVSCKASGFDIQDTYMHWVRQAPGQGLEWMGRIEPASGHVKYDPKFQTRVTMTRDTSTSTVYMELSSLRSEDTAVYYCARSGGLPDWWGQGTTVTVSSASTKGPSVFPLAPCSRSTSESTAALGCLVKDYFPEPVTVSWNSGALTSGVHTFPAVLQSSGLYSLSSVVTVPSSNFGTQTYTCNVDHKPSNTKVDKTVERKCCVECPPCPAPPVAGPSVFLFPPKPKDTLMISRTPEVTCVVVDVSHEDPEVQFNWYVDGVEVHNAKTKPREEQFNSTFRVVSVLTVVHQDWLNGKEYKCKVSNKGLPAPIEKTISKTKGQPREPQVYTLPPSREEMTKNQVSLTCLVKGFYPSDIAVEWESNGQPENNYKTTPPMLDSDGSFFLYSKLTVDKSRWQQGNVFSCSVMHEALHNHYTQKSLSLSPGK light: EIVLTQSPGTLSLSPGERATLSCRASSSVSYMYWYQQKPGQAPRLLIYATSNLASGIPDRFSGSGSGTDFTLTISRLEPEDFAVYYCQQWEGNPRTFGGGTKLEIKRTVAAPSVFIFPPSDEQLKSGTASVVCLLNNFYPREAKVQWKVDNALQSGNSQESVTEQDSKDSTYSLSSTLTLSKADYEKHKVYACEVTHQGLSSPVTKSFNRGEC |
